Data reported in the supplement of paper PMC8728848.
The list shows a part of the results.

Assays:
Test in all cases: glycan array binding signal (z-score within array); higher = stronger binding
Conditions in all cases: glycan notation: IUPAC condensed, linker removed
[1] = molecular target: Neu5Ac(a2-6)Gal(b1-4)GlcNAc(b1-2)Man(a1-3)[Man(a1-6)]Man(b1-4)GlcNAc(b1-4)GlcNAc
How it was run: (§1)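 Glycan array binding is given as a within-array Z-score, which can be read as non-binding when negative. The arrays, 3228 of them, came from the Consortium for Functional Glycomics database and were retained only where the protein sequence was available. Z-scores were averaged across arrays of the same protein sequence at different concentrations or buffers and across linkers.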

[2] = molecular target: Neu5Ac(a2-6)Gal(b1-4)GlcNAc(b1-2)Man(a1-3)[Neu5Ac(a2-3)Gal(b1-4)GlcNAc(b1-2)Man(a1-6)]Man(b1-4)GlcNAc(b1-4)GlcNAc
How it was run: as §1

[3] = molecular target: Neu5Ac(a2-6)Gal(b1-4)GlcNAc(b1-2)Man(a1-3)[Neu5Ac(a2-6)Gal(b1-4)GlcNAc(b1-2)Man(a1-6)]Man(b1-4)GlcNAc(b1-4)GlcNAc
How it was run: as §1

[4] = molecular target: Neu5Ac(a2-6)Gal(b1-4)GlcNAc(b1-2)Man(a1-3)[Neu5Ac(a2-6)Gal(b1-4)GlcNAc(b1-2)Man(a1-6)]Man(b1-4)GlcNAc(b1-4)[Fuc(a1-6)]GlcNAc
How it was run: as §1

[5] = molecular target: Neu5Ac(a2-6)Gal(b1-4)GlcNAc(b1-2)Man(a1-6)Man(b1-4)GlcNAc(b1-4)GlcNAc
How it was run: as §1

[6] = molecular target: Neu5Ac(a2-6)Gal(b1-4)GlcNAc(b1-2)Man(a1-6)[Gal(b1-4)GlcNAc(b1-2)Man(a1-3)]Man(b1-4)GlcNAc(b1-4)GlcNAc
How it was run: as §1

[7] = molecular target: Neu5Ac(a2-6)Gal(b1-4)GlcNAc(b1-2)Man(a1-6)[GlcNAc(b1-2)Man(a1-3)]Man(b1-4)GlcNAc(b1-4)GlcNAc
How it was run: as §1

[8] = molecular target: Neu5Ac(a2-6)Gal(b1-4)GlcNAc(b1-2)Man(a1-6)[Man(a1-3)]Man(b1-4)GlcNAc(b1-4)GlcNAc
How it was run: as §1

[9] = molecular target: Neu5Ac(a2-6)Gal(b1-4)GlcNAc(b1-2)[Neu5Ac(a2-6)Gal(b1-4)GlcNAc(b1-4)]Man(a1-3)[GlcNAc(b1-4)][Neu5Ac(a2-6)Gal(b1-4)GlcNAc(b1-2)[Neu5Ac(a2-6)Gal(b1-4)GlcNAc(b1-6)]Man(a1-6)]Man(b1-4)GlcNAc(b1-4)GlcNAc
How it was run: as §1

[10] = molecular target: Neu5Ac(a2-6)Gal(b1-4)GlcNAc(b1-2)[Neu5Ac(a2-6)Gal(b1-4)GlcNAc(b1-4)]Man(a1-3)[GlcNAc(b1-4)][Neu5Ac(a2-6)Gal(b1-4)GlcNAc(b1-4)Man(a1-6)]Man(b1-4)GlcNAc(b1-4)GlcNAc
How it was run: as §1

[11] = molecular target: Neu5Ac(a2-6)Gal(b1-4)GlcNAc(b1-2)[Neu5Ac(a2-6)Gal(b1-4)GlcNAc(b1-6)]Man(a1-6)[Neu5Ac(a2-6)Gal(b1-4)GlcNAc(b1-2)Man(a1-3)][GlcNAc(b1-4)]Man(b1-4)GlcNAc(b1-4)GlcNAc
How it was run: as §1

[12] = molecular target: Neu5Ac(a2-6)Gal(b1-4)GlcNAc(b1-3)Gal(b1-3)GlcNAc
How it was run: as §1

[13] = molecular target: Neu5Ac(a2-6)Gal(b1-4)GlcNAc(b1-3)Gal(b1-4)GlcNAc
How it was run: as §1

[14] = molecular target: Neu5Ac(a2-6)Gal(b1-4)GlcNAc(b1-3)Gal(b1-4)GlcNAc(b1-2)Man(a1-3)[Neu5Ac(a2-6)Gal(b1-4)GlcNAc(b1-3)Gal(b1-4)GlcNAc(b1-2)Man(a1-6)]GalNAc
How it was run: as §1

[15] = molecular target: Neu5Ac(a2-6)Gal(b1-4)GlcNAc(b1-3)Gal(b1-4)GlcNAc(b1-3)Gal(b1-4)GlcNAc
How it was run: as §1

[16] = molecular target: Neu5Ac(a2-6)Gal(b1-4)GlcNAc(b1-3)Gal(b1-4)GlcNAc(b1-3)Gal(b1-4)GlcNAc(b1-2)Man(a1-3)[Neu5Ac(a2-6)Gal(b1-4)GlcNAc(b1-3)Gal(b1-4)GlcNAc(b1-3)Gal(b1-4)GlcNAc(b1-2)Man(a1-6)]GalNAc
How it was run: as §1

[17] = molecular target: Neu5Ac(a2-6)Gal(b1-4)GlcNAc(b1-3)Gal(b1-4)GlcNAc(b1-3)GalNAc
How it was run: as §1

[18] = molecular target: Neu5Ac(a2-6)Gal(b1-4)GlcNAc(b1-3)Gal(b1-4)GlcNAc(b1-3)[Neu5Ac(a2-6)Gal(b1-4)GlcNAc(b1-3)Gal(b1-4)GlcNAc(b1-6)]GalNAc
How it was run: as §1

[19] = molecular target: Neu5Ac(a2-6)Gal(b1-4)GlcNAc(b1-3)Gal(b1-4)GlcNAc(b1-6)[Gal(b1-3)]GalNAc
How it was run: as §1

[20] = molecular target: Neu5Ac(a2-6)Gal(b1-4)GlcNAc(b1-3)Gal(b1-4)[Fuc(a1-3)]GlcNAc(b1-3)Gal(b1-4)[Fuc(a1-3)]GlcNAc
How it was run: as §1

[21] = molecular target: Neu5Ac(a2-6)Gal(b1-4)GlcNAc(b1-3)GalNAc
How it was run: as §1

[22] = molecular target: Neu5Ac(a2-6)Gal(b1-4)GlcNAc(b1-3)[Neu5Ac(a2-6)Gal(b1-4)GlcNAc(b1-6)]GalNAc
How it was run: as §1

[23] = molecular target: Neu5Ac(a2-6)Gal(b1-4)GlcNAc(b1-6)GalNAc
How it was run: as §1

[24] = molecular target: Neu5Ac(a2-6)Gal(b1-4)GlcNAc(b1-6)[Gal(b1-3)GlcNAc(b1-3)]Gal(b1-4)Glc
How it was run: as §1

[25] = molecular target: Neu5Ac(a2-6)Gal(b1-4)GlcNAc(b1-6)[Gal(b1-3)]GalNAc
How it was run: as §1

[26] = molecular target: Neu5Ac(a2-6)Gal(b1-4)GlcNAc6S
How it was run: as §1

[27] = molecular target: Neu5Ac(a2-6)GalNAc
How it was run: as §1

[28] = molecular target: Neu5Ac(a2-6)GalNAc(b1-4)GlcNAc
How it was run: as §1

[29] = molecular target: Neu5Ac(a2-6)GalNAc(b1-4)GlcNAc6S
How it was run: as §1

[30] = molecular target: Neu5Ac(a2-6)GlcNAc(b1-4)GlcNAc
How it was run: as §1

[31] = molecular target: Neu5Ac(a2-6)GlcNAc(b1-4)GlcNAc(b1-4)GlcNAc
How it was run: as §1

B1: SP15308F-bth-333-19-333 (Bacteroides thetaiotaomicron) (protein)
chain: SCNNEWESEQYVQMVSFKAPVNAQGVTPIYIRYKPEGKVTYQLPLIVSGSTMNSKDLNVHVGLDLDTLDVLNVEHFGSRKELFFKPLENKYYEFPETVQIPAGECTSLLPIDFALKDLDQVDKWVLPLAIQSNDPSHNYQANPRKFYRRAMLRISPFNDYSGQYSATAYKVYFKGNEKEAIVPEYHTSYVIDDKTIFFYAGLIDIDRLDRKYYKIKFEFTEEKIDLQTRKLKISSDNEDINLVVKGQPSYTVEEEMDATRPYLKHIYVTINNLEYEFTDYTSVPGYPLEYVVKGSLTMERKINTQIPDEDQAIEW
**Q.** Which results are given for B1?
**A.** glycan array binding signal (z-score) [1]: -0.333; glycan array binding signal (z-score) [2]: -0.439; glycan array binding signal (z-score) [3]: 0; glycan array binding signal (z-score) [4]: 0.193; glycan array binding signal (z-score) [5]: -0.588; glycan array binding signal (z-score) [6]: 0.535; glycan array binding signal (z-score) [7]: 0.292; glycan array binding signal (z-score) [8]: -0.056; glycan array binding signal (z-score) [9]: -0.18; glycan array binding signal (z-score) [10]: -1.16; glycan array binding signal (z-score) [11]: 0.627; glycan array binding signal (z-score) [12]: -0.227; glycan array binding signal (z-score) [13]: -1.1; glycan array binding signal (z-score) [14]: 3.27; glycan array binding signal (z-score) [15]: -0.92; glycan array binding signal (z-score) [16]: 2.6; glycan array binding signal (z-score) [17]: 0.907; glycan array binding signal (z-score) [18]: 0.784; glycan array binding signal (z-score) [19]: 1.51; glycan array binding signal (z-score) [20]: -0.571; glycan array binding signal (z-score) [21]: -0.489; glycan array binding signal (z-score) [22]: -0.503; glycan array binding signal (z-score) [23]: -0.694; glycan array binding signal (z-score) [24]: -0.927; glycan array binding signal (z-score) [25]: -0.014; glycan array binding signal (z-score) [26]: -0.026; glycan array binding signal (z-score) [27]: 0.006; glycan array binding signal (z-score) [28]: -0.518; glycan array binding signal (z-score) [29]: -0.552; glycan array binding signal (z-score) [30]: -0.425; glycan array binding signal (z-score) [31]: -0.92
